Measurements reported in publication PMC11001197, “The PII protein interacts with the Amt ammonium transport and modulates nitrate/nitrite assimilation in mycobacteria” (Frontiers in Microbiology, 2024).

Amino acid sequences for entries named in this document (tags omitted). A change or cut given only in a name is not applied to a line headed by its entry.
UniProt P9WN31: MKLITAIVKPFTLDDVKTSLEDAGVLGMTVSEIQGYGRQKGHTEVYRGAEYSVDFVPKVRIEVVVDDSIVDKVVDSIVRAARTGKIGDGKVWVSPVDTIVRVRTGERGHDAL
UniProt P9WQ65: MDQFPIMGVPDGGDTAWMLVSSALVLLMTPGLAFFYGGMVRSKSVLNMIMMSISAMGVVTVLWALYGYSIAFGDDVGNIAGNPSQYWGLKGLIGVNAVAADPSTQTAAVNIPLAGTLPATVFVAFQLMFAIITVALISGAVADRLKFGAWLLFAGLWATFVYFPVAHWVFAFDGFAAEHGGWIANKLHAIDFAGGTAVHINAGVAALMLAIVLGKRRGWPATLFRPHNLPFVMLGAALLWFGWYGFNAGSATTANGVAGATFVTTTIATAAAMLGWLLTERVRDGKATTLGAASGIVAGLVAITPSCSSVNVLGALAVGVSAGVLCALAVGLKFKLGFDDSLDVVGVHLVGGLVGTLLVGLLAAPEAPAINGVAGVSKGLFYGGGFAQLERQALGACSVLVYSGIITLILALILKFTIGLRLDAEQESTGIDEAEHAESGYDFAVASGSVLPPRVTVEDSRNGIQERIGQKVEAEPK

Target: M. tuberculosis PII protein (GlnB), His tag fusion (M. tuberculosis) (UniProt P9WN31)
Experiment: pull-down; both purified

C-terminal domain of the M. tuberculosis ammonium transporter Amt (AmtCTR), without tags (from UniProt P9WQ65) (domain or fragment)
binding: binds

These are yes or no findings as the source states them, for the method shown. Binding can be weak; no strength is given.
